Consider six compounds from patent US20230416248A1, “COMPOUNDS AND USES THEREOF” (Foghorn Therapeutics Inc., priority 2020, published 2023).

By UniProt entry, the sequences of proteins in these tests, tags left out.
UniProt P51531, whole entry: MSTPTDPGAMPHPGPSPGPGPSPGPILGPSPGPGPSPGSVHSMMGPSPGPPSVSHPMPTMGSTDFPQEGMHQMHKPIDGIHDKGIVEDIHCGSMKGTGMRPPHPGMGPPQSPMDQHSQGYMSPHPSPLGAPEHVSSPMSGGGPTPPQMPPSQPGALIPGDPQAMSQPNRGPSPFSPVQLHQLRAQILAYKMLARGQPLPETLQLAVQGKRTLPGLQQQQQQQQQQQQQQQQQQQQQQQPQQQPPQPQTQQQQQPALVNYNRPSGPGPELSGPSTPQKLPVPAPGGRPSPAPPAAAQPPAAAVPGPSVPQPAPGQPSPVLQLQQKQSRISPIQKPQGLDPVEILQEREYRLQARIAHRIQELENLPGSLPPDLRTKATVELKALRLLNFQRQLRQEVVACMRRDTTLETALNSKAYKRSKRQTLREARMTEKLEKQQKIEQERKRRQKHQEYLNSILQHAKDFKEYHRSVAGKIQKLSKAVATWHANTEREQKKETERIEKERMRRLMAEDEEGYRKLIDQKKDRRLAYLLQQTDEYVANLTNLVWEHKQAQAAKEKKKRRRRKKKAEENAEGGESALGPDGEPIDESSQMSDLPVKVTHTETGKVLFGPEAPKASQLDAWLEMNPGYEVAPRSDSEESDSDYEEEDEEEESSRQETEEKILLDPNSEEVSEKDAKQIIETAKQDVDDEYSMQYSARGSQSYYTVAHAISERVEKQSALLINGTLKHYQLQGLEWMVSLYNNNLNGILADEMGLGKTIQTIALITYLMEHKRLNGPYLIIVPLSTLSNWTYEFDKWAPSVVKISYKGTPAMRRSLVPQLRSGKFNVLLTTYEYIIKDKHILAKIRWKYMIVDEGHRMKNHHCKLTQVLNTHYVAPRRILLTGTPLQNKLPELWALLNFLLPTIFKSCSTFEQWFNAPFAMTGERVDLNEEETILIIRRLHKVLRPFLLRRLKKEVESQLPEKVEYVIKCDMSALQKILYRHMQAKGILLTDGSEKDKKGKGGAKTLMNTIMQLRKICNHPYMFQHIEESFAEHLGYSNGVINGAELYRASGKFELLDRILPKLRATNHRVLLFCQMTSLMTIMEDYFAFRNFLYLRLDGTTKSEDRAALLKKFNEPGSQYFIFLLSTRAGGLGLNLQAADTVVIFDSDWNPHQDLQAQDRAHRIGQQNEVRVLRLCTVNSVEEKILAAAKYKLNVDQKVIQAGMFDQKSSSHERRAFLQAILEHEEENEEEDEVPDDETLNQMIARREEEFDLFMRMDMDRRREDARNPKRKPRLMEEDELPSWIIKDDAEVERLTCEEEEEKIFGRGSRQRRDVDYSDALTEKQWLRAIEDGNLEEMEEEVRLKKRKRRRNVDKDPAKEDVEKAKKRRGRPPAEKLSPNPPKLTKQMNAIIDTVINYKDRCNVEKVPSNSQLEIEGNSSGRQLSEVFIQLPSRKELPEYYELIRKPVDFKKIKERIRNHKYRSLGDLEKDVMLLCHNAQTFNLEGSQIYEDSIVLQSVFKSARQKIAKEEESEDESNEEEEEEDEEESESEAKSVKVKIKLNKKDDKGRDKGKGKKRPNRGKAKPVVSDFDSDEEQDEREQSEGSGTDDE
UniProt P51532, whole entry: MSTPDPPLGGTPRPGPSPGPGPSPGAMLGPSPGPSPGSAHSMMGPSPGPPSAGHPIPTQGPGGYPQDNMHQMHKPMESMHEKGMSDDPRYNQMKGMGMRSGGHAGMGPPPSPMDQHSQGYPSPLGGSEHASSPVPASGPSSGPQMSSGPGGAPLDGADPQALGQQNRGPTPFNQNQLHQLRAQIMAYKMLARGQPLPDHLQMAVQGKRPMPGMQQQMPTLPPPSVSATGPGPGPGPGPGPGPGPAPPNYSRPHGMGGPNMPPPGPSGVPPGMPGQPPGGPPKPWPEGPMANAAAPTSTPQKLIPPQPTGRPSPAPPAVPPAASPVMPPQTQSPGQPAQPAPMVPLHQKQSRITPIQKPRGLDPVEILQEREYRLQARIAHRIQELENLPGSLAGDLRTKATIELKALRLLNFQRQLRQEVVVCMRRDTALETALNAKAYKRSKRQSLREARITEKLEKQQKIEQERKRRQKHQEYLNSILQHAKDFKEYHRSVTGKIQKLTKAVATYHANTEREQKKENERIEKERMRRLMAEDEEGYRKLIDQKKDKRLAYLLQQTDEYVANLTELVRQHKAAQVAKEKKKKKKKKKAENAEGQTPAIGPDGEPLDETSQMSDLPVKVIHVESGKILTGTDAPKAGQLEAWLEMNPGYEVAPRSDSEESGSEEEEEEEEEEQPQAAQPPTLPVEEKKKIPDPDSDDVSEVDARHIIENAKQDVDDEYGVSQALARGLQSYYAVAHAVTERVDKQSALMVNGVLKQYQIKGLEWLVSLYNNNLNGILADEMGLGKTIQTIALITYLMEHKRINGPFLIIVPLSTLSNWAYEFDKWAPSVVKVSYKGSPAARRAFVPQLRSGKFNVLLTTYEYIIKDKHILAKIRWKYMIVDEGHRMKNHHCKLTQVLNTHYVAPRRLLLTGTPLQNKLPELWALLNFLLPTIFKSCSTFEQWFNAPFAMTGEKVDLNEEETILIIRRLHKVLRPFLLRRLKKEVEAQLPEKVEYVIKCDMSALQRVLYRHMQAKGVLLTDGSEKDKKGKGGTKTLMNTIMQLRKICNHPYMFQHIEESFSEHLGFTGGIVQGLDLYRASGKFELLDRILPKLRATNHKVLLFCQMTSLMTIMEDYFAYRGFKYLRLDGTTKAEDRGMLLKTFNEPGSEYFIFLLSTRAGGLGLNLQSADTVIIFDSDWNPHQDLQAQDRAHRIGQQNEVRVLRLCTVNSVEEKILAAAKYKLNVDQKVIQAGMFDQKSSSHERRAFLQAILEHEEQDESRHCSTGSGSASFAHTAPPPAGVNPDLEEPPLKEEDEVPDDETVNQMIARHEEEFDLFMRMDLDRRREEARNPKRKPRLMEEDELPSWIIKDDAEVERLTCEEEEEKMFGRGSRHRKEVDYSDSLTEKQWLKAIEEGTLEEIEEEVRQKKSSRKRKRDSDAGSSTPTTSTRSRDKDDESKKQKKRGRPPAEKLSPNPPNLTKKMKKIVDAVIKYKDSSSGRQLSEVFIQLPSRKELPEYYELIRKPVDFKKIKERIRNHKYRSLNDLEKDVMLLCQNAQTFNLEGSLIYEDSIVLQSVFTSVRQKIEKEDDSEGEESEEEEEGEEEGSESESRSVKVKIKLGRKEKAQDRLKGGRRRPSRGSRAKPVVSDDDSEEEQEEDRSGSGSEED

Structures were worked out from names or drawings and are uncertain.

For one assay, the target named is BRM (Homo sapiens, UniProt P51531). In words: ATPase catalytic activity of BRM, ADP-Glo in vitro biochemical assay. Particulars: for IC50: read-out: BRM IC50, ADP-Glo ATPase assay, 30 nM BRM, 400 μM ATP; for Ratio* (BRG1 IC50 (μM) divided by BRM IC50 (μM)): selectivity ratio BRG1 IC50 / BRM IC50. Background: In ADP-Glo the light output rises with the ADP produced.

For the next assay, the target named is BRG-1 (Homo sapiens, UniProt P51532). As to the kind of experiment: ATPase catalytic activity of BRG-1, ADP-Glo in vitro biochemical assay. Particulars: read-out: BRG1 IC50, 30 nM BRG-1, 400 μM ATP.

In general, IC50 refers to the concentration needed to halve the response being measured. Turning to `C[C@@H]1CN(c2cccc(-c3ccc4cnc(CNC(=O)c5cc(F)c6c(c5)S(=O)(=O)[C@@H](C)COC6)cc4n3)n2)C[C@H](C)O1`, at BRM, the concentration for half-maximal inhibition (IC50) was found to be 9 nM and the “Ratio* (BRG1 IC50 (μM) divided by BRM IC50 (μM))” value stood at 3.83. Further, the half-inhibitory concentration (IC50) at BRG-1 was determined as 34.5 nM.
Taken in the same sequence, the figures for `O=C(NCc1cc2nc(-c3cccc(N4CCC4)c3)ccc2cn1)c1cnc2c(c1)S(=O)(=O)CCOC2` were 101 nM, 10.44 and 1060 nM.
Taken in the same sequence, the figures for `CN1CCOc2c(-c3ccc4cnc(CNC(=O)c5ccc6c(c5)S(=O)(=O)CCOC6)cc4n3)cccc21` were 50.4 nM, 9.15 and 461 nM.
On the same counts, the results for `C[C@@H]1CN(c2cccc(-c3ccc4cnc(CNC(=O)c5ccc6c(c5)S(=O)(=O)COCC6)cc4n3)n2)C[C@H](C)O1` are 4 nM, 5.17 and 20.7 nM.
`O=C(NCc1cc2nc(-c3ccccc3)ccc2cn1)c1ccc2c(c1)S(=O)(=O)CCOC2`: on BRM, the IC50 is 267 nM and the “Ratio* (BRG1 IC50 (μM) divided by BRM IC50 (μM))” value is 6.32. For the same compound, at BRG-1, the IC50 came to 1690 nM.
As for `CN1CCOc2ccc(-c3ccc4cnc(CNC(=O)c5ccc6c(c5)S(=O)(=O)CCOC6)cc4n3)cc21`, the results for the IC50 at BRM and on BRG-1 were 35.4 nM and 262 nM, respectively. Besides, the “Ratio* (BRG1 IC50 (μM) divided by BRM IC50 (μM))” value at BRM was found to be 7.38.
